Measured values: PubChem BioAssay AID2685 (National Center for Advancing Translational Sciences (NCATS), 2010)
The other results are listed elsewhere or left out. These are further read-outs of the screen, such as a control signal, another cell line or another target. No call is given for them. The list favours compounds with an active or inconclusive main result. The note in brackets gives the kind of curve behind each potency; many fits are weak.

Assay: qHTS Assay for Lipid Storage Modulators in Drosophila S3 Cells;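 for cell number change: cells counted by Cell Tracker Red CMTPX staining in the red channel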
Conditions: BODIPY lipid droplet fluorescence, 18-24 h; for cell number change: measured here: cell count max response, cells fed with added oleic acid
In short: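 Laser-scanning cytometry quantifies lipid droplet accumulation (500–530 nm total intensity; droplet/cell object ratio) in oleic acid-fed (400 uM added) Drosophila S3 cells treated with a concentration series. 20 uM Triacsin C defined 100% inhibition.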

[1] = measured here: lipid fluorescence (Fed channel) AC50, cells fed with added oleic acid
[2] = measured here: cell number channel AC50, cells fed with added oleic acid

SMILES	cell number change	AC50 [1]	AC50 [2]
CSc1ccc(CN(C)C(C)C(=O)Nc2ccc(F)c(F)c2F)cc1 (stereo unspecified)	118%	–	–
CCCN(CCC)CCCNC(=O)c1cc2c(=O)[nH]c3ccccc3c2s1	7.8%	29.1 µM [rising, partial curve, poor fit]	–
COc1ccc(CCNC(=O)c2sc3nc4n(c(=O)c3c2C)CCC4)cc1	56.9%	5.8 µM [rising, partial curve]	2.06 µM [rising, full curve]
Cc1cc(C(=O)NCC2CCCO2)sc1C (stereo unspecified)	0.283%	0.058 µM [rising, full curve, poor fit]	–
CNC(=O)NC(=O)CN1C(=O)NC2(CCOc3ccccc32)C1=O (stereo unspecified)	-41%	29.1 µM [rising, single point]	36.6 µM [falling, partial curve, poor fit]
Cc1ccc(-c2nc3c4ccccc4ccn3c2CN2CCCCC2)cc1	-6.32%	0.231 µM [falling, partial curve, poor fit]	–
CCCc1nc(SCc2ccccn2)c2c(=O)n(C)c(=O)n(C)c2n1	21%	2.06 µM [rising, partial curve]	–
O=C(COc1ccccc1)N(CCc1ccccc1)c1nc(-c2ccc(F)cc2)cs1	-27.1%	16.4 µM [falling, partial curve]	–
CC1(C)C(C=C(Cl)Cl)C1C(=O)N1CCN(c2ccccc2)CC1 (stereo unspecified)	–	6.51 µM [falling, single point]	5.17 µM [falling, single point]
CCOc1ccc(OCCC(=O)OCC(=O)N2CCN(S(=O)(=O)c3ccc(Cl)cc3)CC2)cc1	-38.2%	22.4 µM [falling, partial curve]	35.5 µM [falling, single point]
COc1cc(CN(C2CCCCC2)S(=O)(=O)c2ccc(S(=O)(=O)N(C)C3CCCCC3)cc2)cc(OC)c1OC	17%	29.1 µM [rising, single point]	–
CCC1(c2ccc(F)cc2)NC(=O)N(CC(=O)NCc2ccc(C)cc2)C1=O (stereo unspecified)	54.1%	0.13 µM [falling, full curve, poor fit]	29.1 µM [rising, single point]
O=C(C1CCN(Cc2nc(-c3ccc(Cl)cc3)no2)CC1)N1CCOCC1	5.73%	–	0.058 µM [falling, partial curve, poor fit]
N/C(=N\OC(=O)CCn1cccc(C(F)(F)F)c1=O)c1ccc(Cl)cc1	34.8%	–	29.1 µM [rising, single point]
CC(C)=NOc1cc(NC(=O)CCl)cc([N+](=O)[O-])c1	-16.5%	0.231 µM [falling, full curve, poor fit]	–
COc1ccc(CN2CCCC(N3CCN(c4cccc(Cl)c4)CC3)C2)cc1OC (stereo unspecified)	-10.2%	0.00461 µM [falling, full curve, poor fit]	–
O=S(=O)(CCSc1nc2ccccc2o1)c1nc2ccccc2s1	-32.6%	29.1 µM [falling, single point]	29.1 µM [falling, single point]
COC(=O)CN1C(=O)C2(OCCCO2)c2cc(Br)ccc21	-8.14%	–	–
O=C(CCCCn1c(=O)c2ccccc2n(CC(=O)Nc2ccccc2)c1=O)NCc1ccco1	-25.8%	29.1 µM [falling, single point]	–

SMILES	cell number change	AC50 [1]	AC50 [2]
CCN(CC)C(=O)C(=O)c1cccn1-c1ccc(C#N)cc1	-3.75%	4.11 µM [falling, single point]	–
CSC(=NC#N)N1CCN(c2c(C)cccc2C)CC1	32.4%	25.9 µM [rising, single point]	29.1 µM [rising, single point]
CCCN(C(=O)CSCc1ccc(Cl)cc1)c1c(N)n(Cc2ccccc2)c(=O)[nH]c1=O	33.7%	–	29.1 µM [rising, single point]
Cc1[nH]c2ccccc2c1-c1nc(-c2ccc(Cl)cc2)nnc1-c1ccccc1	16.9%	0.116 µM [rising, full curve, poor fit]	0.082 µM [rising, full curve, poor fit]
O=C(O)c1nn(-c2ccccc2)ccc1=O	17.5%	–	–
CCCCOC(=O)c1ccc(NC(=O)C(=O)NCc2ccncc2)cc1	-17.8%	23.1 µM [falling, single point]	–
COc1ccc(S(=O)(=O)N2CCN(Cc3ccccc3)CC2)cc1	10.5%	0.411 µM [rising, partial curve, poor fit]	–
COc1ccccc1/C=N/NC(=O)c1nnn(-c2nonc2N)c1CN(C)c1ccccc1	-1.91%	23.1 µM [falling, single point]	3.26 µM [falling, single point]
CC1CCCN(Cc2nc3c(c(=O)n(C)c(=O)n3C)n2CCCc2ccccc2)C1 (stereo unspecified)	–	–	0.731 µM [rising, partial curve]
CCCCC(=O)Nc1nc(C)c(-c2csc(Nc3cc(Cl)ccc3OC)n2)s1	–	–	3.66 µM [falling, partial curve, poor fit]
CCc1ccc(NC(=O)Cn2c(=O)c3cccn3c3ccccc32)cc1	–	6.51 µM [falling, single point]	–
[N-]=[N+]=CC(=O)C(c1ccccc1)(c1ccccc1)c1ccccc1	23.3%	–	–
O=C(CCCc1ccccc1)NCCCc1ccccc1	-10.3%	0.146 µM [falling, full curve, poor fit]	–
Cc1ccc(CCN2CC(C(=O)NCCCOC(C)C)CC2=O)cc1 (stereo unspecified)	40.2%	6.51 µM [rising, partial curve]	29.1 µM [rising, single point]
O=C(CN1C(=O)CSc2ccc(S(=O)(=O)N3CCCCC3)cc21)NCc1ccccc1	30.7%	29.1 µM [rising, single point]	–
CC(=O)Nc1ccc(C2=CC(=O)C[C@H](c3ccc4c(c3)OCO4)C2)cc1	-26.8%	0.146 µM [rising, full curve, poor fit]	–
O=C(N1CCOCC1)C12CC3CC(C1)CC(n1cnc(Cl)n1)(C3)C2	-4.94%	16.4 µM [falling, partial curve, poor fit]	–
COc1ccc(-c2nc(-n3c(C)c(C(C)=O)c(C(C)=O)c3C)sc2C)cc1OC	–	16.4 µM [rising, partial curve]	0.651 µM [rising, full curve]
CC(NC(=O)CC1CCCCC1)c1ccccc1 (stereo unspecified)	-3.97%	0.13 µM [rising, partial curve, poor fit]	–

Structures listed so far containing a thiophene ring, fused or not (3):
SMILES	cell number change	AC50 [1]	AC50 [2]
CCCN(CCC)CCCNC(=O)c1cc2c(=O)[nH]c3ccccc3c2s1	7.8%	29.1 µM [rising, partial curve, poor fit]	–
COc1ccc(CCNC(=O)c2sc3nc4n(c(=O)c3c2C)CCC4)cc1	56.9%	5.8 µM [rising, partial curve]	2.06 µM [rising, full curve]
Cc1cc(C(=O)NCC2CCCO2)sc1C (stereo unspecified)	0.283%	0.058 µM [rising, full curve, poor fit]	–

(continued)

SMILES	cell number change	AC50 [1]	AC50 [2]
CC(=O)N/N=c1\sc2ccccc2n1C	-38.4%	–	–
COc1cc2c(cc1NC(=O)C(C)OC(=O)/C=C/c1ccc(OC(F)F)cc1)oc1ccccc12 (stereo unspecified)	-4.55%	2.06 µM [rising, partial curve]	–
CCCN1CCN(CCCNC(=O)c2ccc(NC(=O)C3=C(C)OCCS3)cc2)CC1	-27.7%	0.58 µM [rising, single point]	–
O=C(CCNc1ccc(F)cc1)c1cccc([N+](=O)[O-])c1	-9.39%	14.6 µM [falling, partial curve]	–
O=C1CCCN1c1ccc(Br)cc1	7.23%	–	–
CCOC(=O)CNS(=O)(=O)c1c(C)noc1C	-50.9%	14.6 µM [falling, partial curve]	5.8 µM [falling, full curve]
CC(=O)Nc1cccc(-c2nnc(SCC(=O)n3c4c(c5ccccc53)CCCC4)n2C)c1	26.4%	0.103 µM [rising, full curve, poor fit]	–
COC(=O)C1=C(C)NC(=O)NC1c1ccc2ccccc2c1 (stereo unspecified)	13.7%	6.51 µM [rising, single point]	–
O=C1CC(c2ccccc2)n2nc(NC(=O)c3cccs3)nc2N1 (stereo unspecified)	4.99%	–	–
O=[N+]([O-])c1ccc(CNc2ccc(F)cc2)s1	-4.4%	13 µM [falling, partial curve, poor fit]	–
CC(=O)c1ccc(N2CCN(C(=O)Nc3ccc(C)cc3)CC2)cc1	10.4%	0.517 µM [rising, full curve]	0.326 µM [rising, full curve]
Cc1cnnc2c1-c1nonc1CC2	-94.3%	29.1 µM [falling, single point]	0.411 µM [falling, single point]
Cc1sc2ncnc(SCC(=O)N3CCN(C(=O)c4ccco4)CC3)c2c1C	-18.2%	–	–
c1ccc2[nH]c(SCc3cscn3)nc2c1	121%	23.1 µM [rising, partial curve]	20.6 µM [rising, partial curve]
COc1cc(C(=O)Nc2ccc3nc4n(c(=O)c3c2)CCCCC4)cc(OC)c1OC	–	3.26 µM [falling, single point]	–
CS(=O)(=O)c1ccc(Cl)c(NC(=O)COC(=O)C23CC4CC(CC(C4)C2)C3)c1	-10.4%	0.092 µM [rising, full curve, poor fit]	–
Cc1cc(NC(=O)COC(=O)CNS(=O)(=O)c2ccc(C)c(C)c2)no1	-110%	29.1 µM [falling, single point]	29.1 µM [falling, single point]
COc1ccc(OC)c(CNC(=O)C2CCCN(C(=O)N(C)C)C2)c1 (stereo unspecified)	11.1%	1.16 µM [falling, single point]	–
Nc1nc2cc(S(=O)(=O)NC3=NCCCCC3)ccc2s1	-11.6%	2.91 µM [rising, single point]	–
